# PubChem BioAssay AID743121, NCATS – 2013
# Purpose: 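Knock-downs that sensitise breast cancer cells to camptothecin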 (primary screen)
# System: MDA-MB-231 cells, a human breast cancer line
# Reagents: single siRNA against human genes, 20 nM siRNA (0.8 pmol per well)
# Duration: 120 h (drug added 48 h after transfection, read 72 h later)
# Challenge: camptothecin 20 nM (about EC30) for 72 h; vehicle 0.1% DMSO in parallel plates
# Measured: 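CellTiter-Glo ATP signal, scaled to control siRNA as percent viability; sensitisation given as log2 of untreated divided by camptothecin-treated viability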
# Direction: log2 vehicle/camptothecin viability: higher = stronger sensitisation to camptothecin; viability with camptothecin and viability without drug: higher = more viable cells
# Rule for the call: 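Active genes have an RSA gene-level p-value below 0.001, computed from the ratios of their separate siRNAs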
# The whole screen tested about 26,000 reagents; this is a part drawn at random. 167 of all reagents (0.63%) count as active. 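Calls are per gene from RSA p-values that are not deposited; an individual active-marked siRNA can sensitise only weakly.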 A number with no mark means an inactive call. Reagents against one gene are numbered here.
The first 2 entries as a preview:
gene,reagent,log2 vehicle/camptothecin viability,viability with camptothecin (% of control),viability without drug (% of control)
SIRPB1,1,-0.302,123,99.8
SIRPB1,2,-0.182,72.7,64

Main list, repeating the preview:
gene,reagent,log2 vehicle/camptothecin viability,viability with camptothecin (% of control),viability without drug (% of control)
SIRPB1,1,-0.302,123,99.8
SIRPB1,2,-0.182,72.7,64
SIRPB1,3,-0.03,61.2,59.9
SIRPB1,4,0.0297,34.2,34.9
SIRPB1,5,-0.584,81.4,54.3
SIRPB1,6,-0.193,62.3,54.5
ALOX5,1,-0.295,71.4,58.2
ALOX5,2,-0.0882,56.8,53.4
ALOX5,3,-0.0571,72.3,69.5
RTBDN,1,-0.103,78,72.6
RTBDN,2,-0.648,103,65.7
RTBDN,3,-0.175,119,105
RTBDN,4,-0.373,66.6,51.5
GDF3,1,-0.445,15,11
GDF3,2,-0.572,96.2,64.7
GDF3,3,0.0883,87.1,92.6
EFCAB6,1,-0.312,74.5,60
EFCAB6,2,-0.121,46.7,42.9
EFCAB6,3,-0.295,104,85.1
EFCAB6,4,0.0214,84,85.3
H2AZ1,1,0.261,65.1,78
H2AZ1,2,-0.4,91.5,69.3
H2AZ1,3,-0.146,109,98.7
H2AZ1,4,-0.0194,84.3,83.2
MC2R,1,-0.27,113,93.9
MC2R,2,-0.395,41.2,31.4
MC2R,3,0.62,37.8,58
MC2R,4,-0.0835,45.5,42.9
FGF4,1,0.0495,97,100
FGF4,2,0.142,57.5,63.5
FGF4,3,-0.426,67.1,50
FGF4,4,0.56,33.1,48.8
TMPRSS6,1,-0.158,96.6,86.5
TMPRSS6,2,-0.296,84,68.5
TMPRSS6,3,-0.177,113,100
FAP,1,-0.0323,102,99.4
FAP,2,-0.0797,85.2,80.6
FAP,3,-0.168,89,79.2
FAP,4,-0.391,78.8,60.1
TRA2B,1,-0.476,96.9,69.7
TRA2B,2,0.278,69,83.7
TRA2B,3,-0.512,14.7,10.3
TRA2B,4,-0.424,83.7,62.4
ACKR2,1,-0.395,92.5,70.4
ACKR2,2,0.224,76.2,89
ACKR2,3,0.121,71.1,77.4
ACKR2,4,-0.155,82.1,73.8
